Data: publication PMC10249096, “Design, Synthesis, and Evaluation of a New Series of Hydrazones as Small-Molecule Akt Inhibitors for NSCLC Therapy” (ACS Omega, 2023)

System: A549 human lung adenocarcinoma cells
Experiment: MTT test, cytotoxicity on A549 cells
Format: cell-based
Conditions: selectivity index L929/A549
Method: A549 and L929 cell lines were purchased from American Type Culture Collection (Manassas, VA, USA). Cells were cultured, and drug treatments were performed as previously explained.[46]
MTT assay was conducted as previously described[47] with slight modifications.[48] Cisplatin was used as a positive control. The assay was performed in triplicate. Half-maximal inhibitory concentration (IC50) data (μM) were expressed as mean ± SD.

| Compound | SI (IC50 for L929 cells/IC50 for A549 cells) |
| --- | --- |
| CN(C)c1ccc(C=NNC(=O)CSc2nc3cc(Cl)ccc3o2)cc1 [Compound 3a, N′-(4-Dimethylaminobenzylidene)-2-[(5-chlorobenzoxazol-2-yl)thio]acetohydrazide] | > 5.47 |
| O=C(CSc1nc2cc(Cl)ccc2o1)NN=Cc1ccc(N2CCCCC2)cc1 [Compound 3e, N′-[4-(Piperidin-1-yl)benzylidene]-2-[(5-chlorobenzoxazol-2-yl)thio]acetohydrazide] | > 2.84 |
| CN1CCN(c2ccc(C=NNC(=O)CSc3nc4cc(Cl)ccc4o3)cc2)CC1 [Compound 3g, N′-[4-(4-Methylpiperazin-1-yl)benzylidene]-2-[(5-chlorobenzoxazol-2-yl)thio]acetohydrazide] | 5.94 |
| O=C(CSc1nc2cc(Cl)ccc2o1)NN=Cc1ccc(-n2ccnc2)cc1 [Compound 3i, N′-[4-(1H-Imidazol-1-yl)benzylidene]-2-[(5-chlorobenzoxazol-2-yl)thio]acetohydrazide] | > 5.98 |
